# Some of the results follow.
# Amino acid sequences for entries named in this document (tags omitted). A change or cut given only in a name is not applied to a line headed by its entry.
# UniProt Q9P2D3: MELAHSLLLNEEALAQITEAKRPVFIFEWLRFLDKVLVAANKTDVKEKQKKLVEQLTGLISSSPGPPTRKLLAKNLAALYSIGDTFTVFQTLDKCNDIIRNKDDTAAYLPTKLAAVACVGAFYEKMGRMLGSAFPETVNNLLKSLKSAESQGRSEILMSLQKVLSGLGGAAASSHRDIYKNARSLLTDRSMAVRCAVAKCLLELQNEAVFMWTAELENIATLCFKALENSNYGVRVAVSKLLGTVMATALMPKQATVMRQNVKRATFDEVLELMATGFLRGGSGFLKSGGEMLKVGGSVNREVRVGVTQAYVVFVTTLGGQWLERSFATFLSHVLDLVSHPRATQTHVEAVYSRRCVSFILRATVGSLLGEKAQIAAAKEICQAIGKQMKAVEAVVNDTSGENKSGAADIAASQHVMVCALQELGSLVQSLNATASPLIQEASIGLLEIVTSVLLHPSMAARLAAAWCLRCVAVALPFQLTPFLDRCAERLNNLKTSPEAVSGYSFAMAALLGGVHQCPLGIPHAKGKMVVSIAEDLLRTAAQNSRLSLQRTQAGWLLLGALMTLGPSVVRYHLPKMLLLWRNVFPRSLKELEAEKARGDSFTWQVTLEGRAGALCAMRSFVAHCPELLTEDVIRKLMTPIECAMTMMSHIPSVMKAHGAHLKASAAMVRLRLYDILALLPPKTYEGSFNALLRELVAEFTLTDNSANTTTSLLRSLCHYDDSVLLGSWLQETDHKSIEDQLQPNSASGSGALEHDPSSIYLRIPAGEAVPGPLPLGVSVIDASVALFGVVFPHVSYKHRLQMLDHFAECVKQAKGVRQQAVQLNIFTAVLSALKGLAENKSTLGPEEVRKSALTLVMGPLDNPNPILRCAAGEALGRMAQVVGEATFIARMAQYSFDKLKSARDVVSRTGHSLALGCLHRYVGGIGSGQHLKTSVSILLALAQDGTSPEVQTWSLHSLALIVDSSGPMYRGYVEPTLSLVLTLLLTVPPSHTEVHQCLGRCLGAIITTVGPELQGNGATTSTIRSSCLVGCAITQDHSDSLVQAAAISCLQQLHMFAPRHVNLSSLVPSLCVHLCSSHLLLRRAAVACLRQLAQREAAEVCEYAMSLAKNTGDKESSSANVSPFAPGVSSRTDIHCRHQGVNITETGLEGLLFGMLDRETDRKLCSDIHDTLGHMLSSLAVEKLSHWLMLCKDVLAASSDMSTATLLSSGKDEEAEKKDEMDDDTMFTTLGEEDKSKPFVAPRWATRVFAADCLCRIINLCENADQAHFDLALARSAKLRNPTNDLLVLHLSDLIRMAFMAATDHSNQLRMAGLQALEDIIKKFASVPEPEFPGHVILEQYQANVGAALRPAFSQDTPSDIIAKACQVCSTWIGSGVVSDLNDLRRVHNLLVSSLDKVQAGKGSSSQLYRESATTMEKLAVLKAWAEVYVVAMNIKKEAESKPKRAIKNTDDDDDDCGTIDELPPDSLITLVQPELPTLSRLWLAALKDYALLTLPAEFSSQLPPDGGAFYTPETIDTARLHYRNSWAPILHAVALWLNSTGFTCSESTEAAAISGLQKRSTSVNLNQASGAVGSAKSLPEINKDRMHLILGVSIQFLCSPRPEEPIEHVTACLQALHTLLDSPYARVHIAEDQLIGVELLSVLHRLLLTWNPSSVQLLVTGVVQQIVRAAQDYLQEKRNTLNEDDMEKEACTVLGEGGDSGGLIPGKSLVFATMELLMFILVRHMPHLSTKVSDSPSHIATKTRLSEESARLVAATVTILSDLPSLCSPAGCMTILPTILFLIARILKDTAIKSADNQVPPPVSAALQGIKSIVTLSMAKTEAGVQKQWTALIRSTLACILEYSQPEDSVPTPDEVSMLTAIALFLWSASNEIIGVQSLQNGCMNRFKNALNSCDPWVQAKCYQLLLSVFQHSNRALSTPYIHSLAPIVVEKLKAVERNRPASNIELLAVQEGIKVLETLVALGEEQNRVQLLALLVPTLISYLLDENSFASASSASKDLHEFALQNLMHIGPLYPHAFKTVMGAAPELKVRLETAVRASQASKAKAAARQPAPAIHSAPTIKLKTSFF
# UniProt Q16774: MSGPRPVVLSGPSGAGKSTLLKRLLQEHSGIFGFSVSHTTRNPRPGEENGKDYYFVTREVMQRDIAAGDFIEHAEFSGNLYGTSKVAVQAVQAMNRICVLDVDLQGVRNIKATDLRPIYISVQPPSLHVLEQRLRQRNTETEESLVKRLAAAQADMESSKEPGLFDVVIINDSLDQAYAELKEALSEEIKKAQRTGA
# UniProt P40939: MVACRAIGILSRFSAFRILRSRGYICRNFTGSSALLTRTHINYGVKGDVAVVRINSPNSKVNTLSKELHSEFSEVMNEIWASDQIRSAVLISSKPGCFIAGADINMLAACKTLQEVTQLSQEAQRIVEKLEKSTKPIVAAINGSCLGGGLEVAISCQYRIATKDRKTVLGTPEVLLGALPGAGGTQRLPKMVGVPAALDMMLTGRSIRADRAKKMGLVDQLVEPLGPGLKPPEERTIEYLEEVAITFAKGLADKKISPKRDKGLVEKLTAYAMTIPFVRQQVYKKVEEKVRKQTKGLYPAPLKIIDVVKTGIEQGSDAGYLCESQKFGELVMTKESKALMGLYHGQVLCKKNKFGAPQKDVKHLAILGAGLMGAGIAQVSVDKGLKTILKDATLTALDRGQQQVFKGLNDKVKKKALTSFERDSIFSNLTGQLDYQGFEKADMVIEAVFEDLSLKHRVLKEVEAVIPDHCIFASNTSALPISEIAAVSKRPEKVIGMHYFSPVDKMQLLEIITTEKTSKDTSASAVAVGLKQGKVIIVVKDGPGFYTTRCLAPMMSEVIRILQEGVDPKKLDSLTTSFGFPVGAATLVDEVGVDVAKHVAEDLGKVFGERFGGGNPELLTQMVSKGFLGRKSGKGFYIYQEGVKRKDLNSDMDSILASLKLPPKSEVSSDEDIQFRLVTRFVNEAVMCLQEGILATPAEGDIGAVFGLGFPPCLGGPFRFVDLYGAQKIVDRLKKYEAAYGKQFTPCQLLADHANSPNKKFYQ
# UniProt O00165, whole entry, looked up: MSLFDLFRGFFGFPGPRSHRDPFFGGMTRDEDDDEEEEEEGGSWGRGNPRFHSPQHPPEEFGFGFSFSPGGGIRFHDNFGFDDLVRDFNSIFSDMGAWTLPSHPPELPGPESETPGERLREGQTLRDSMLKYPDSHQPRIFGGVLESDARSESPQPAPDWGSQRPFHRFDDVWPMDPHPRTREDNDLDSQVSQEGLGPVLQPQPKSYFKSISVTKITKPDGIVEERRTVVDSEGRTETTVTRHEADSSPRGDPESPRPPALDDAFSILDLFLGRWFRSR
# UniProt P55084: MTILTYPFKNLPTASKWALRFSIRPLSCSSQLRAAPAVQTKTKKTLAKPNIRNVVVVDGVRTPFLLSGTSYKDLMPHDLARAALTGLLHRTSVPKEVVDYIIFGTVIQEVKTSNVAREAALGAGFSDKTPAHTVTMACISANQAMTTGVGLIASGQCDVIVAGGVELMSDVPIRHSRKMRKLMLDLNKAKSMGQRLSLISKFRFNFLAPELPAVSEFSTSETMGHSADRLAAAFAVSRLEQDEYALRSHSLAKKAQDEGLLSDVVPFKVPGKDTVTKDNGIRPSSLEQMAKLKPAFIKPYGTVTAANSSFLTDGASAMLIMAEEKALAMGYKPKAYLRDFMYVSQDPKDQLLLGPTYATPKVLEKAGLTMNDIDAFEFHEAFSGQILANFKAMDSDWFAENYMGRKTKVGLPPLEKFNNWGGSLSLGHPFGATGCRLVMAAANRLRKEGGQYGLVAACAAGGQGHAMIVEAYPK
# UniProt P07686: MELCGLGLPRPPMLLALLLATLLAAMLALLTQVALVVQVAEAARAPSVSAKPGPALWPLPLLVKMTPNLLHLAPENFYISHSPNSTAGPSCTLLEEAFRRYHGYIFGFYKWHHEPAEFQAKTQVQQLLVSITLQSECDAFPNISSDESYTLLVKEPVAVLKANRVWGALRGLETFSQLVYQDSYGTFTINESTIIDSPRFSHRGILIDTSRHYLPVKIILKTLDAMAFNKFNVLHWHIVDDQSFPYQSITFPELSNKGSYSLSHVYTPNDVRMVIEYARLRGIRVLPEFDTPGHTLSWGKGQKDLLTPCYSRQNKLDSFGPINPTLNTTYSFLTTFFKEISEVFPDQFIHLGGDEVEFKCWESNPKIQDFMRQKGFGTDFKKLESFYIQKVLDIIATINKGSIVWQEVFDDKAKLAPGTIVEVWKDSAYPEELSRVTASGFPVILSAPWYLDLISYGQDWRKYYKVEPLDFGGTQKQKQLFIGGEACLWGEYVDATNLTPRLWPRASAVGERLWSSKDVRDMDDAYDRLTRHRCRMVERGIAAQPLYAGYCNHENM
# UniProt Q13889: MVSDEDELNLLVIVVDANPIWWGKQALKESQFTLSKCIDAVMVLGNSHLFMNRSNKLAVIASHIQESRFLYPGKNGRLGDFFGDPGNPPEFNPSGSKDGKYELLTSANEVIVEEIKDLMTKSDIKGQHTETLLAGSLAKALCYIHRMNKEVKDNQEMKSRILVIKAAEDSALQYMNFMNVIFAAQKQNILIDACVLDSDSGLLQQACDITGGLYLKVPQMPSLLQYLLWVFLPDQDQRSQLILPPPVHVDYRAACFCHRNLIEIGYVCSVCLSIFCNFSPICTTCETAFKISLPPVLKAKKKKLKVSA
# UniProt P08236: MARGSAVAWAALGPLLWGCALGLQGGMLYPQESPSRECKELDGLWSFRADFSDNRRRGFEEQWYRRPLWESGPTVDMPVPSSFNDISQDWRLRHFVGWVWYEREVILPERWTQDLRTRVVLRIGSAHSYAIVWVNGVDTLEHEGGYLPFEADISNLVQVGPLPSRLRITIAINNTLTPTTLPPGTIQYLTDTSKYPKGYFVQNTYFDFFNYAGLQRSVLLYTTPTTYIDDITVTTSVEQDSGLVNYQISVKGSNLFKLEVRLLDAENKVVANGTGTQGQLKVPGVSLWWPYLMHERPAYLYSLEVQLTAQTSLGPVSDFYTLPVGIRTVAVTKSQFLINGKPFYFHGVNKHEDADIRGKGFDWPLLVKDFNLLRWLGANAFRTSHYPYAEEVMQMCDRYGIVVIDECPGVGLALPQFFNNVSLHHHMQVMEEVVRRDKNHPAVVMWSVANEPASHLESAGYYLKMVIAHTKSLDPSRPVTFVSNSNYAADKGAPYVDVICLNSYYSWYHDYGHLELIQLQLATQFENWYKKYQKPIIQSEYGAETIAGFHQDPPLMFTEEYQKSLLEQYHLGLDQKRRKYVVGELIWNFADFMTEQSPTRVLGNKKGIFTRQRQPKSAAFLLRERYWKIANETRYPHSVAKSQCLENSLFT
# UniProt P29083: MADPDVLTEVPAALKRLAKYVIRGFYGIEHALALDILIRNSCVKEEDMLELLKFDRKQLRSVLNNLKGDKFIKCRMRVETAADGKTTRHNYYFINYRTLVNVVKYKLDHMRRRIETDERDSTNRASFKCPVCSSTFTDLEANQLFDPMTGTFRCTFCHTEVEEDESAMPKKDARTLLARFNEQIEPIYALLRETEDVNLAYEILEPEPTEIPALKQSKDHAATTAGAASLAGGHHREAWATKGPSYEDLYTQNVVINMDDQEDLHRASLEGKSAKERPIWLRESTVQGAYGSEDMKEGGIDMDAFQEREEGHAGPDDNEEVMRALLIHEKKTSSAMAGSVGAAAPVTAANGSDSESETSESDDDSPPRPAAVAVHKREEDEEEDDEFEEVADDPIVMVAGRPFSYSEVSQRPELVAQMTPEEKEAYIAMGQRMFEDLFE
# UniProt O95479: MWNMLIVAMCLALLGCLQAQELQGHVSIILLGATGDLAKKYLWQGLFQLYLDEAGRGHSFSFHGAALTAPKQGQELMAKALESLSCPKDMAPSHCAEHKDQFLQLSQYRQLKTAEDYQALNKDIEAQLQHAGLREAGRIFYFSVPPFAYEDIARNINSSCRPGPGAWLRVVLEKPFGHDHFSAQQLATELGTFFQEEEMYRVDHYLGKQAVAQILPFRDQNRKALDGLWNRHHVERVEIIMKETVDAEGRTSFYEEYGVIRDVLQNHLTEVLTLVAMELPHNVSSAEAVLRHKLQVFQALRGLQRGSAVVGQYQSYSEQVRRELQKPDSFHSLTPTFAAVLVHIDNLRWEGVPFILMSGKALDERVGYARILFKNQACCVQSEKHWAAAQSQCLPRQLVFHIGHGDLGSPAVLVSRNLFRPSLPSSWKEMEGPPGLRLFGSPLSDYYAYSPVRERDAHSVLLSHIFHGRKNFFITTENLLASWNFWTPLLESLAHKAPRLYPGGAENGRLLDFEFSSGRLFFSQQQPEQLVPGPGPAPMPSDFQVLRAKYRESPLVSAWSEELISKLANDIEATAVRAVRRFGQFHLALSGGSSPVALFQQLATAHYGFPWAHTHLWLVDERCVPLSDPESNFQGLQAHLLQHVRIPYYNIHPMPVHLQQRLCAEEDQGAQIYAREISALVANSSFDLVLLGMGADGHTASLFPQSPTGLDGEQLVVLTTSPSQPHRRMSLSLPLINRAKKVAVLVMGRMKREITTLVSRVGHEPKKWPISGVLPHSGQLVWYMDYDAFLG
# What was measured:
# Assay in all cases: log2 fold change, soluble protein after heating vs DMSO (PISA); higher = thermal stabilisation; K562 cells, 10 uM, 30 min; active = over 0.2 and 3.5 SD of the protein, either way, in both replicates (recomputed)
# [1] = compound: NC(=O)Nc1cc(-c2cccc(F)c2)sc1C(=O)N[C@H]1CCCNC1
# Method in brief: (§1)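 Quantification of soluble protein used TMTpro 16plex LC-MS/MS, with channel sums equalised. Samples were the supernatant after 21,000xg for 90 min of pooled aliquots from K562 cells (2×10^6 cells/mL) treated with 10 μM compound for 30 min, heated for 3 min over 48°C-58°C, and extracted in PBS with 0.5% NP-40 at 4°C. Values, from duplicates, describe thermal stability against control samples on a log2 fold-change scale.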
# [2] = compound: NC(=O)c1cnc(N[C@@H]2CCCC[C@@H]2N)nc1Nc1cccc(-n2nccn2)c1
# Method in brief: as §1
# [3] = compound: NC1(c2ccc(-c3nc4ccn5c(=O)[nH]nc5c4cc3-c3ccccc3)cc2)CCC1
# Method in brief: as §1
# [4] = compound: NCC(=O)Nc1ccc(-n2nc(C(F)(F)F)cc2-c2ccc3c(ccc4ccccc43)c2)cc1
# Method in brief: as §1
# [5] = compound: Nc1ccccc1NC(=O)c1ccc(CNC(=O)OCc2cccnc2)cc1 [entinostat]
# Method in brief: as §1
# [6] = compound: O=C(CCCCCCC(=O)Nc1ccccc1)NO [vorinostat]
# Method in brief: as §1
# [7] = compound: O=C(CCCCCCNC(=O)c1cnc(N(c2ccccc2)c2ccccc2Cl)nc1)NO [citarinostat]
# Method in brief: as §1
# [8] = compound: O=C(O)c1ccc2c(c1)nc(Nc1cccc(Cl)c1)c1ccncc12 [silmitasertib]
# Method in brief: as §1
# [9] = compound: O=C1NC(=O)C(c2cnc3ccccn23)=C1c1cn2c3c(cc(F)cc13)CN(C(=O)N1CCCCC1)CC2
# Method in brief: as §1
# [10] = compound: c1cc(OCCN2CCCCC2)cc(-c2n[nH]c3ccc(-c4nnc[nH]4)cc23)c1
# Method in brief: as §1
# [11] = compound: c1cn2cc(-c3ccc4cn[nH]c4c3)nc(Nc3ccc(N4CCOCC4)cc3)c2n1 [entospletinib]
# Method in brief: as §1
Target,log2 fold change [1],log2 fold change [2],log2 fold change [3],log2 fold change [4],log2 fold change [5],log2 fold change [6],log2 fold change [7],log2 fold change [8],log2 fold change [9],log2 fold change [10],log2 fold change [11]
HEATR5B (UniProt Q9P2D3),inactive: 0.01,inactive: 0.012,inactive: -0.152,inactive: -0.028,inactive: -0.03,inactive: -0.008,inactive: 0,inactive: -0.053,inactive: 0.083,inactive: 0.056,
GUK1 isoform 2 (UniProt Q16774),inactive: -0.126,inactive: -0.029,inactive: -0.059,inactive: -0.064,inactive: 0.065,inactive: -0.002,inactive: 0.031,inactive: 0.044,inactive: -0.094,inactive: 0.122,
GTF3C5 isoform 3 (UniProt Q9Y5Q8),inactive: -0.028,inactive: 0.211,inactive: -0.054,inactive: -0.051,inactive: 0.046,inactive: 0.072,inactive: -0.074,inactive: -0.034,inactive: 0.042,inactive: 0.013,
HADHA (UniProt P40939),inactive: -0.035,inactive: 0.033,inactive: 0.131,inactive: 0.125,inactive: 0.045,inactive: -0.059,inactive: 0.018,inactive: -0.1,active: 1.01,inactive: -0.007,
HAX1 (UniProt O00165),inactive: -0.106,inactive: -0.165,inactive: -0.174,inactive: -0.06,inactive: 0.021,inactive: 0.115,inactive: -0.019,inactive: -0.032,inactive: 0.036,inactive: -0.074,
HADHB (UniProt P55084),inactive: -0.079,inactive: 0.021,inactive: 0.104,inactive: 0.078,inactive: 0.014,inactive: 0,inactive: 0.037,inactive: -0.115,active: 0.716,inactive: -0.056,
GSTP1 (UniProt P09211),inactive: -0.044,inactive: -0.01,inactive: -0.056,inactive: 0.001,inactive: -0.006,inactive: -0.012,inactive: 0.034,inactive: -0.038,inactive: -0.005,inactive: -0.013,
GSTM4 (UniProt Q03013),inactive: -0.071,inactive: -0.046,inactive: -0.121,inactive: 0.023,inactive: -0.068,inactive: -0.013,inactive: -0.079,inactive: 0.137,inactive: 0.151,inactive: 0.199,
HEXB (UniProt P07686),inactive: 0.003,inactive: -0.051,inactive: -0.145,inactive: -0.034,inactive: 0.004,inactive: -0.042,inactive: 0.033,inactive: 0.007,inactive: -0.034,inactive: -0.003,
GTF2H3 (UniProt Q13889),inactive: -0.133,inactive: -0.152,inactive: 0.12,inactive: -0.063,inactive: 0.141,inactive: 0.037,inactive: -0.049,inactive: -0.004,inactive: -0.041,inactive: -0.015,
HDGFL2 (UniProt Q7Z4V5),active: -0.273,inactive: -0.05,inactive: -0.022,inactive: -0.052,inactive: -0.139,inactive: 0.024,inactive: -0.032,inactive: 0.033,inactive: -0.093,inactive: -0.018,
GUSB (UniProt P08236),inactive: -0.044,inactive: 0.029,inactive: 0.047,inactive: 0.067,inactive: -0.066,inactive: 0.049,inactive: 0.148,inactive: -0.011,inactive: 0.057,inactive: -0.059,
GTF2E1 (UniProt P29083),inactive: -0.038,inactive: -0.118,inactive: -0.122,inactive: -0.198,inactive: 0.054,inactive: 0.095,inactive: 0.073,inactive: 0.06,inactive: -0.134,inactive: -0.124,
H6PD (UniProt O95479),inactive: 0.103,inactive: 0.001,inactive: 0.025,inactive: 0.23,inactive: 0.014,inactive: -0.077,inactive: -0.062,inactive: 0,inactive: 0.037,inactive: 0.002,inactive: -0.039
HDDC2 (UniProt Q7Z4H3),inactive: -0.013,inactive: 0.111,inactive: -0.005,inactive: 0.032,inactive: -0.03,inactive: -0.036,inactive: 0.032,inactive: -0.032,inactive: 0.029,inactive: -0.041,

# Looked up one by one from the list above, 2 records:
Target,log2 fold change [1],log2 fold change [2],log2 fold change [3],log2 fold change [4],log2 fold change [5],log2 fold change [6],log2 fold change [7],log2 fold change [8],log2 fold change [9],log2 fold change [10],log2 fold change [11]
HEXB (UniProt P07686),inactive: 0.003,inactive: -0.051,inactive: -0.145,inactive: -0.034,inactive: 0.004,inactive: -0.042,inactive: 0.033,inactive: 0.007,inactive: -0.034,inactive: -0.003,
GSTM4 (UniProt Q03013),inactive: -0.071,inactive: -0.046,inactive: -0.121,inactive: 0.023,inactive: -0.068,inactive: -0.013,inactive: -0.079,inactive: 0.137,inactive: 0.151,inactive: 0.199,

# From the supplement of paper PMC10849652
